{"source": "paper PMC5807433", "about": "“PP5 (PPP5C) is a phosphatase of Dvl2” (Scientific Reports, 2018)", "molecular_target": "T1, EYFP-PP5-H304A (phosphatase-dead PP5) (human) (UniProt P53041)", "T1 sequence": "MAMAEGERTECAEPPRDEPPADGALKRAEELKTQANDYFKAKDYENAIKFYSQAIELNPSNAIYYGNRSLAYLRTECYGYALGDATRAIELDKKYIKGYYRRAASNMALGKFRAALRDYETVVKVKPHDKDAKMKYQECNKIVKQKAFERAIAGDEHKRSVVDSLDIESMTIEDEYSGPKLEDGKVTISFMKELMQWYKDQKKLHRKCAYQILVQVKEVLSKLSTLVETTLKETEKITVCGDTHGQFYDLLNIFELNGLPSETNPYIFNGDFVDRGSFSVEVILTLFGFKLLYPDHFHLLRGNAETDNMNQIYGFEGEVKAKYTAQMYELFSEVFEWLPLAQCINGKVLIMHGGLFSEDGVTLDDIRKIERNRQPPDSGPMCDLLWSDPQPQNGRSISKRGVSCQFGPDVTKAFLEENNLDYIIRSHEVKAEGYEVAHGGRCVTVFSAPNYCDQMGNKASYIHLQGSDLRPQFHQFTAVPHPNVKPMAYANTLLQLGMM", "test": "co-IP; GFP-Trap beads holding EYFP-PP5-H304A; transfected HEK293T cells; Western blot", "note": "No constants are given. Whether binding was seen depends on the method and setting. In cells and extracts the contact can be indirect. Binding can be weak; no strength is given. Sequences can lack the tags named with a protein."}
{"substance": "FLAG-Dvl2 D1 (Dvl2 with the DIX domain deleted) (human) (domain or fragment)", "values": [{"measurement": "binding", "value": "binds"}]}
